No constants are given. Whether binding was seen depends on the method and setting. Binding seen in cells or lysates may run through a third protein. Here binding means that the protein was enriched with, or labelled near, the bait; the list need not be complete. Tags and fused reporters may be left off the sequences shown.

In publication PMC4698670 one finds binding data, which are given here for 1 molecule.

This assay addresses T1, fortilin tagged with the haemagglutinin (HA)-epitope at its C-terminal end (not stated (human or mouse cDNA cloned)) (UniProt P13693).
T1 sequence: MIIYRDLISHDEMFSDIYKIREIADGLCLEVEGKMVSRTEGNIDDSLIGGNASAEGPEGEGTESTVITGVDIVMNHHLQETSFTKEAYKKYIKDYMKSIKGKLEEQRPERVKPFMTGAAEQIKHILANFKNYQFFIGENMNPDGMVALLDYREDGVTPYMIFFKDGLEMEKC
The experiment in a line: affinity purification with mass spectrometry; 10 mg cleared lysate of U2OS_(Fortilin-HA) or U2OS_(Empty-HA) on anti-HA agarose beads overnight at 4 °C; lysis 20 mM HEPES pH 7.4, 35 mM NaCl, 0.001% NP-40; washes with 150 mM NaCl, 0.01% NP-40; SDS-PAGE, SYPRO Ruby, bands excised, MALDI-TOF/TOF.

B1: peroxiredoxin-1 (PRX1), endogenous in U2OS cells (protein, UniProt Q06830 1-199)
chain: MSSGNAKIGHPAPNFKATAVMPDGQFKDISLSDYKGKYVVFFFYPLDFTFVCPTEIIAFSDRAEEFKKLNCQVIGASVDSHFCHLAWVNTPKKQGGLGPMNIPLVSDPKRTIAQDYGVLKADEGISFRGLFIIDDKGILRQITVNDLPVGRSVDETLRLVQAFQFTDKHGEVCPAGWKPGSDTIKPDVQKSKEYFSKQK
Turning to B1, the binding entry was “binds”.
